Measurements from “University of Dundee, Small-Polar-MMV Screening Library” (2021), ChEMBL document CHEMBL3988442.

The chains behind the UniProt entries cited, without tags or fusion partners.
UniProt E9BF75, entry or part of it: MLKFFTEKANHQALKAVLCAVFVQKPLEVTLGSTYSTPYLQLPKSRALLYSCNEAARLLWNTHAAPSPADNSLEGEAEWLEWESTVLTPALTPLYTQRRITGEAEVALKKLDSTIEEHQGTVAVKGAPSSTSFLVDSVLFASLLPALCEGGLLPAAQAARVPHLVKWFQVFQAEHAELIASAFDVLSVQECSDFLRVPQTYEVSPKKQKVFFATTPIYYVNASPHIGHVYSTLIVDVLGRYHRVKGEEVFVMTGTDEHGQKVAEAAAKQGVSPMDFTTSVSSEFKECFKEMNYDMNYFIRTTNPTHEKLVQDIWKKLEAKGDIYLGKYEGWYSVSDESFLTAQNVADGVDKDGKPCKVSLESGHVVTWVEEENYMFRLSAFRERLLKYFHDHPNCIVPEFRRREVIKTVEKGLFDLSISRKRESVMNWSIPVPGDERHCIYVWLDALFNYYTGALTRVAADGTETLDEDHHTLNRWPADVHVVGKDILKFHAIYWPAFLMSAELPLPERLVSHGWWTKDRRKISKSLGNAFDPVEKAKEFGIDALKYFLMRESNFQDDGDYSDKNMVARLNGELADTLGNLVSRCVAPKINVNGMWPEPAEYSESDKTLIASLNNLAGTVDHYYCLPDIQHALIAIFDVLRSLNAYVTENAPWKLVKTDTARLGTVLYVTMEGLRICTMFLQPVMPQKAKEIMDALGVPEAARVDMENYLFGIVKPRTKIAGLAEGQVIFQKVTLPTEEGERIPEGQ

All values are in %. The record does not define 0% and 100%; most values in the screen are far below 50% and negative numbers occur (in some assays of this library far below -100). The compounds are a random part of those screened.

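Methionyl-tRNA synthetase (putative), Leishmania donovani (UniProt E9BF75). Primary screen of methionyl-tRNA synthetase; the read-out is not stated. The test concentration is not given. Values are per cent inhibition. Size under these conditions: about 68,000 compounds, about 24 of them at 50% or above in at least one test.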

Result for Cn1nccc1CCC(=O)N1CCCC(c2cnccn2)C1 (configuration not stated) was 1.286%.
Result for Cc1cnn(CC2CCCN2Cc2cn3ccsc3n2)c1 (configuration not stated) was 11.72%.
Result for Cn1nccc1-c1ccc2nc(C3CCNCC3)nn2c1 was 4.658%.
Result for CCc1cnc(C(C)NC(=O)N2CCCN(CC(F)F)CC2)s1 (configuration not stated) was 1.977%.
Result for CS(=O)(=O)N1CCN(Cc2cccs2)CC(C(N)=O)C1 (configuration not stated) was 13.02%.
Result for CC(NC1(CNC(=O)C(C)(C)C#N)CCOCC1)c1ccccc1 (configuration not stated) was 5.576%.
Result for Cc1nn(C)c(C)c1C1CCCN1C(=O)Cc1cn2ccsc2n1 (configuration not stated) was -1.907%.
Result for Cc1ccc(N2CCC3(CN(Cc4cccs4)CCC3(F)F)C2)nn1 (configuration not stated) was -1.093%.
Result for O=C1CCCN1CCCC(=O)N1CCCC(Cc2cccnc2)C1 (configuration not stated) was 5.412%.
Result for CN1CC2(CCN(C(=O)c3ccc4nonc4c3)CC2)CC1=O was 6.145%.
Result for OCCN1CCC(c2cncc(-c3cccc(Cl)c3)n2)CC1 was 18.12%.
Result for O=C(Nc1cccc(C(=O)OCC2CCCN2)c1)c1ccoc1 (configuration not stated) was 15.41%.
Result for Cc1nc(C(C)C)sc1C(=O)NCCNc1ncccc1C#N was 13.19%.
Result for CC(C)CC(O)C1CCN(C(=O)c2coc(CN3CCOCC3)c2)CC1 (configuration not stated) was 19.38%.
Result for Cc1cc(NCCc2nc(C)c[nH]2)nc(-c2ccccc2O)n1 was 16.53%.
Result for Cc1ccc(CN(C)Cc2nc3c(cnn3C)c(=O)[nH]2)o1 was 6.266%.
Result for CCC1CCCCN1C(=O)Cn1nc(-c2ccc(C)s2)cc(N)c1=O (configuration not stated) was 12.81%.
Result for CC1=C(C(=O)N2CCCC(Cn3cc(CO)nn3)C2)OCCO1 (configuration not stated) was 17.5%.
Result for Cc1cc(C(=O)N2CCc3nc(N4CCOCC4)nc(C)c3C2)c(C)o1 was 11.73%.
Result for O=C(Cc1ccccc1Cl)N1CCCC(n2cncn2)C1 (configuration not stated) was 11.66%.
Result for Cc1ccc(C)c(OCc2cc(C(=O)N(C)CC(O)CO)no2)c1 (configuration not stated) was 6.145%.
Result for O=C(CCn1cccn1)N1CCC(C2CCN(c3ncccn3)CC2)C1 (configuration not stated) was 7.394%.
Result for CSCCC(=O)N1CCCC1c1nnc2n1CCCCC2 (configuration not stated) was 5.722%.
Result for N#CC1C(=O)Nc2c(cnn2C2CCCC2)C12CCCC2 (configuration not stated) was 5.249%.
Result for Cc1nnc(C[C@@H]2COC[C@H]3CN(C(=O)C4=CCCC4)C[C@@H]23)o1 was 14.49%.
Result for CN1C(=O)c2ccc(C(=O)N(Cc3cnn(C)c3)C3CC3)cc2C1=O was 13.62%.
Result for Cc1cc2ccccc2n1CCC(=O)N1CCN(C)CC1C(N)=O (configuration not stated) was 17.92%.
Result for Cc1nc2cc(=O)[nH]n2c(C)c1CNC(=O)c1cnn(C(C)(C)C)c1 was 7.453%.
Result for CCOC(=O)[C@]12CCCN(Cc3cccs3)C[C@H]1CN(C(C)=O)C2 was 10.99%.
Result for CCn1c(CC2CCN(S(=O)(=O)Cc3ccccc3)CC2)nn(C)c1=O was -3.069%.
Result for O=C(NC1CCS(=O)(=O)C1)c1ccccc1SCc1cscn1 (configuration not stated) was 6.593%.
Result for Cc1cccnc1CC(C)Nc1nc(N)nc2c1CCNC2 (configuration not stated) was 5.943%.
Result for Cc1ccc(CN2C[C@@H](C(=O)O)[C@H](c3cccnc3)C2)s1 was 8.521%.
Result for CN1CC[C@]2(CN(CC3CCOC3)C[C@H]2c2ccccc2)C1=O (some centres not stated) was 0.5495%.
Result for CN1CCN(Cc2noc(CC3CCc4ccccc43)n2)CC1 (configuration not stated) was 10.8%.
Result for COC1CCN(S(=O)(=O)N2CCCC2c2ccco2)CC1 (configuration not stated) was 12.57%.
Result for CNC(=O)CC1CC2(CCN(c3ncccn3)CC2)c2ccccc21 (configuration not stated) was 11.42%.
Result for F[C@@H]1CN(CC2CC2)C[C@@H]1OCc1nc2ccccc2o1 was 7.797%.
Result for Cc1nc(CN2CCN(Cc3ccoc3)Cc3cccnc32)cs1 was 3.863%.
Result for O=C(NCc1ccccc1-n1cccn1)C1CC2(CCNCC2)CN1 (configuration not stated) was 11.76%.
Result for COc1ccc(-n2ncc(C(C)NCc3cnc(SC)nc3)c2C)cc1 (configuration not stated) was 7.035%.
Result for c1ccc(COC[C@H]2CC[C@H]3[C@H](CCN3Cc3cccnc3)O2)nc1 was 7.143%.
Result for O=C(C1CCCCC1)N1CC2(CCNCC2)C1 was -56.67%.
Result for CC(C)CCN1CCc2[nH]nc(C(=O)N3CCCC3C)c2C1 (configuration not stated) was 10%.
Result for NC(=O)NC1CCN(Cc2ccc3c(c2)CCC3)CC1 was 16.01%.
Result for Cc1oncc1C(=O)N1CC[C@H]2CO[C@H](CN3CCCC3)[C@H]2C1 was 9.489%.
Result for CN(C)CC1(O)CCCN(C(=O)Cn2ccc3ccccc32)CC1 (configuration not stated) was 8.761%.
Result for Cc1nc(C)n(CC2CN(Cc3cccc4c3OCCO4)CCO2)n1 (configuration not stated) was 14.96%.
Result for Cc1nc(CN(C)C2CCN(CC3CCCC3)C2)no1 (configuration not stated) was 4.19%.
Result for Cc1nc(N[C@H]2COC[C@@H]2N2CCCC2)c2cnn(C)c2n1 was 5.602%.

Repeated from the top, 5 entries:

{"structure": "Cn1nccc1CCC(=O)N1CCCC(c2cnccn2)C1", "stereo": "configuration not stated", "Inhibition": 1.286}
{"structure": "Cc1cnn(CC2CCCN2Cc2cn3ccsc3n2)c1", "stereo": "configuration not stated", "Inhibition": 11.72}
{"structure": "Cn1nccc1-c1ccc2nc(C3CCNCC3)nn2c1", "Inhibition": 4.658}
{"structure": "CCc1cnc(C(C)NC(=O)N2CCCN(CC(F)F)CC2)s1", "stereo": "configuration not stated", "Inhibition": 1.977}
{"structure": "CS(=O)(=O)N1CCN(Cc2cccs2)CC(C(N)=O)C1", "stereo": "configuration not stated", "Inhibition": 13.02}